Measurements as given in the supplement of paper PMC8551327.
Counter-ions that a name gives are not always drawn. This is one part of the list. Rule as the data show it: active = 1.25 or more and inactive = the rest. Repeats are few or missing, and single values can be far off.

test system: Kcc2-LUC knock-in mouse primary cortical neurons (Kcc2 promoter reporter); assay: Kcc2 promoter-driven luciferase activity relative to vehicle control (fold of vehicle (ratio)); higher = stronger Kcc2 promoter activation (Kcc2 expression enhancer); settings: 100 nM; 48 h

Kcc2 promoter-driven luciferase activity, active:
Nc1ccc2c(c1)CN1C(=O)c3ccccc3C1=N2 [Daniquidone] 1.46
CC(=O)OCc1c2ccccc2c(C)c2c1cc(F)c1ccccc12 [5-fluoro-7-hydroxymethyl 12-methylbenzanthracene acetate] 1.36
Cc1nc2c(nc1C)C(=O)c1ccccc1C2=O [2,3-Dimethylbenzo[g]quinoxaline-5,10-dione] 1.46
CN1CCN(CCNc2ccc(CO)c3sc4ccccc4c(=O)c23)CC1 1.55

Kcc2 promoter-driven luciferase activity, inactive:
COc1nc(N)nc2nc[nH]c12 [6-methoxyguanine] 1.16
CCOC(=O)/C=C/c1c(C)[nH]c(=O)[nH]c1=O [Ethyl 3-(6-methyl-2,4-dioxo-1H-pyrimidin-5-yl)prop-2-enoate] 0.85
CCCN(CCC)C(=S)Sc1nc(C)nc(N2CCN(c3nc(C)nc(SC(=S)N(CCC)CCC)c3[N+](=O)[O-])CC2)c1[N+](=O)[O-] 0.97
NC(=O)c1csc([C@@H]2O[C@H](CO)[C@@H](O)[C@H]2O)n1 [2-.beta.-D-Ribofuranosyl-4-thiazolecarboxamide] 0.92
BrCCC[P+](c1ccccc1)(c1ccccc1)c1ccccc1 [(3-Bromopropyl)triphenylphosphonium bromide] 0.46
CCOc1ccc(C(C)c2cc3c(cc2OC)OCO3)cc1 (configuration not stated) [5-(1-(4-Ethoxyphenyl)ethyl)-6-methoxy-1,3-benzodioxole] 0.99
C/C=C/C1=C(Cl)C(=O)[C@@H](Cl)[C@@]1(O)C(=O)OC [Cryptosporiopsin] 0.48
CC1=CC(=O)c2ccccc2C1=O [Menadione] 0.6
N#C/C(=C\c1ccc2ccccc2c1)C(=O)c1ccccc1 [2-Naphthylidene benzoylacetonitrile] 0.7
Cc1cn(C2CC(O)C(CO)O2)c(=O)[nH]c1=O (configuration not stated) [Deoxythymidin] 1.22
COC(=O)c1[nH]c(=S)[nH]c(=O)c1-c1ccc(Cl)cc1 1.08
C[N+](C)(C)C(Cc1c[nH]c(=S)[nH]1)C(=O)O (configuration not stated) [Sympectothion] 0.408
Cc1cc(O)c(/C=N/C(N)=S)c(=O)o1 [[(Z)-(6-Methyl-2,4-dioxopyran-3-ylidene)methyl]thiourea] 1.19
CN(C)CCCCN1CCc2c(n(C)c3ccccc23)C1=O 0.75
CC1=C(CCC(=O)O)c2cc3nc(cc4[nH]c(cc5[nH]c(cc1n2)c(C)c5C(C)O)c(C)c4C(C)O)C(C)=C3CCC(=O)O (configuration not stated) [Hematoporphyrin] 1.02
CCN1CCC(O)(/C=C/c2ccc(C)cc2)C(C(=O)/C=C/c2ccc(C)cc2)C1 (configuration not stated) [2-Propen-1-one, hydrochloride] 0.8
[Mo] [Polyoxomolybdate phosphate complex, disodium salt] 0.88
COc1cc2oc(=O)cc(C)c2cc1[N+](=O)[O-] [7-Methoxy-4-methyl-6-nitrochromen-2-one] 1.14
COc1ccc2c(c1)O[C@H]1c3ccc(O)cc3OC[C@@H]21 [Medicarpin] 1.12
CCOC(=O)c1ccc(N=Cc2ccc(N(CCC#N)CCC#N)cc2)cc1 0.91
O=C1C(Br)=C(Br)C(=O)c2ccccc21 [2,3-Dibromo-1,4-naphthoquinone] 0.71
Cc1ccc(/C=C2\CNC/C(=C\c3ccc(C)cc3)C2=O)cc1 1.17
Cc1cc2nc3[nH]c(=O)[nH]c(=O)c3nc2cc1C [Lumichrome] 0.54
CC(C)(C)C1CCC2(CC1)CCN(CCCN1CCOCC1)CC2 0.48
O=C1C=C(N2CCNCC2)C(=O)c2c(O)ccc(O)c21 [2-(1-Piperazino)naphthazarin] 0.36
Cc1ccc(NC(=O)c2cc3ccccc3c(N=Nc3ccccc3O)c2O)c(C)c1 [Magon] 0.668
CCCCOc1ccc(NC(N)=Nc2ccc(Cl)cc2)cc1 [1-(4-Butoxyphenyl)-2-(4-chlorophenyl)guanidine] 1.11
Cc1ccc(S(=O)(=O)N2CCSCCSCCSCCSCC2)cc1 0.93

Random excerpt: 2 records from the list
Kcc2 promoter-driven luciferase activity, inactive:
CCN1CCC(O)(/C=C/c2ccc(C)cc2)C(C(=O)/C=C/c2ccc(C)cc2)C1 (configuration not stated) [2-Propen-1-one, hydrochloride] 0.8
C/C=C/C1=C(Cl)C(=O)[C@@H](Cl)[C@@]1(O)C(=O)OC [Cryptosporiopsin] 0.48
